These are yes or no findings as the source states them, for the method shown. In cells and extracts the contact can be indirect. Some results given as binding are weak or reduced against the parent protein; the word gives no strength.
Target: full length Flag-tagged USP28 (human) (UniProt Q96RU2)
Assay: co-IP

The chains behind the UniProt entries cited, without tags or fusion partners.
UniProt Q96RU2, whole entry: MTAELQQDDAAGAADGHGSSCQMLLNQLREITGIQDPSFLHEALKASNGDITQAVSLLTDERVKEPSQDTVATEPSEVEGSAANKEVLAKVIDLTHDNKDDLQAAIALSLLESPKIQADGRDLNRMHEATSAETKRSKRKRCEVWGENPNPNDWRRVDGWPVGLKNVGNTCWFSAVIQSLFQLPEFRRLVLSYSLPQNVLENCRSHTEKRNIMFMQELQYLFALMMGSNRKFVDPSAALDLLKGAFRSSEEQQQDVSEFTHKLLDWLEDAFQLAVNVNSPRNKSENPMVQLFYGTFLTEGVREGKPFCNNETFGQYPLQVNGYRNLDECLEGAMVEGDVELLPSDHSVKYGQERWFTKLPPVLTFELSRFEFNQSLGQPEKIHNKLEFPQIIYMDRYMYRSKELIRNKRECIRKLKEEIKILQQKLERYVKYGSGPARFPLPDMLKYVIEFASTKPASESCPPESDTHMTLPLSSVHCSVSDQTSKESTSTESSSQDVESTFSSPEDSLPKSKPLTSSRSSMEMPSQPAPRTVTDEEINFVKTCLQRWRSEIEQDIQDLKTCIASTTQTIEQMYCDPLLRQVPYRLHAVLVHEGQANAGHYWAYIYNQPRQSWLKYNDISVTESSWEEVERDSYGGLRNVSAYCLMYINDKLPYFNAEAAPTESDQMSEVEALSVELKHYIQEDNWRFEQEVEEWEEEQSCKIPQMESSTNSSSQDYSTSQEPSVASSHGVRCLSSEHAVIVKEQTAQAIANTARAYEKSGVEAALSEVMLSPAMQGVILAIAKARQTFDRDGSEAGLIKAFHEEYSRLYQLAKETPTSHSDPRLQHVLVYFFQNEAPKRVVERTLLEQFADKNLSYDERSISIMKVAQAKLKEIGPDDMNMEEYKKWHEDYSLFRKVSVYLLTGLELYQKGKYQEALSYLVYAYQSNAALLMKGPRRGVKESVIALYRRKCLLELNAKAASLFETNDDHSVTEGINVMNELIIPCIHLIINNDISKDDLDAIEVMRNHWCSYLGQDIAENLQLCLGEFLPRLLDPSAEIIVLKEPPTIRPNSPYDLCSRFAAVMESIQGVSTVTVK

binding: binds
Substance: HA-tagged DTX3L D1-D3 domains (A2-A516) (from UniProt Q8TDB6 2-516) (domain or fragment)
